The results in this text go back to the supplement of paper PMC7858590.

Where “and” joins values, the source holds several entries; their conditions need not be identical. Equal entries are not always repeated. ± gives the standard deviation of the averaged measurements. Whole data set: some 3,800 compounds, median “cell shape (eccentricity) Z-score vs DMSO control” near 1.1, cut for the lowest 2% near -4.7. The list shows a part of the results.

The experiment relates to human monocyte-derived macrophages (M0). The experiment can be described thus: cell shape (eccentricity) Z-score vs DMSO control; higher = more elongated, M2-like morphology. The settings on record: 20 µM; 24 h; macrophage state: M0 (M-CSF). On the procedure: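 Primary human monocyte-derived macrophages (M-CSF differentiated, pooled from 4 donors, 5000 cells/well in 384-well plates) were treated with each compound at 20 uM for 24 h, then fixed and stained with phalloidin/DAPI and imaged on an Opera Phenix (6 fields, about 1000 cells/well). Cell eccentricity was measured with CellProfiler, and a Z-score (t-test) was computed against 4 DMSO control wells in the same row. Negative values mean round (M1-like) cells and positive values mean elongated (M2-like) cells; the paper's hit cutoffs are Z <= -4 (M1) and Z >= 6 (M2). Scale: negative = round, M1-like.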
Turning to `CC(=O)OCC(CCn1cnc2cnc(N)nc21)COC(C)=O`, the “cell shape (Z-score)” value is 0.62. Next, `COc1cc(/C=C/C(=O)NCC(O)c2ccc(O)cc2)ccc1O` (stereo not given): 2.75. For the molecule `CS(=O)(=O)CCNCc1ccc(-c2ccc3ncnc(Nc4ccc(OCc5cccc(F)c5)c(Cl)c4)c3c2)o1`, the “cell shape (Z-score)” value is -2.55 and -1.02. With `C/C=C1\C(OC2OC(CO)C(O)C(O)C2O)OC=C(C(=O)OC)C1CC(=O)OCC1C(C)C(OC(=O)CC2C(C(=O)OC)=COC(OC3OC(CO)C(O)C(O)C3O)/C2=C\C)CC1C(CO)CO` (stereo not given), the “cell shape (Z-score)” value is -0.44.

In the case of `C[C@]12CCC[C@](C)(C(=O)O)C1CCC13C=C(CO)C(CCC12)C3` (stereo not given in full), the “cell shape (Z-score)” value is -0.163. For `CC(=O)O[C@H]1CC[C@H](C)[C@@]2(C)[C@H](OC(C)=O)c3c(C)coc3C(=O)[C@H]12` the value was 0.188. With `O=C(O)CCc1nc(-c2ccccc2)c(-c2ccccc2)o1`, the “cell shape (Z-score)” value was -1.06. Next, `N=C(N)NC(=O)c1nc(Cl)c(N2CCCCCC2)nc1N`: 0.678; `CC(=O)O[C@@H]1[C@@H](OC(C)=O)[C@H](C)O[C@@H](O[C@H]2[C@@H]3C=CO[C@@H](O[C@@H]4O[C@H](CO)[C@@H](O)[C@H](O)[C@H]4O)[C@@H]3[C@@]3(CO)O[C@@H]23)[C@@H]1OC(=O)/C=C/c1ccccc1`: 0.176. For `CC1OC(c2cc3oc(-c4ccccc4)cc(=O)c3c(O)c2O)CC(O)C1O` (stereo not given) the value was 1.38 ± 1.7; for `COc1ccc(-c2ccc(=N)n(CCCC(=O)O)n2)cc1`, -0.738. For `CC1=CC2C(CC1=O)C(C)=CCC2C(C)C` (stereo not given) the value was 1.58; for `CC(C)[C@H](N)C(=O)OCCOCn1cnc2c(=O)[nH]c(N)nc21`, 1.02. Turning to `COCC1OC(OC(C)(C)C2CCC3(C)C(O2)C(O)CC2(C)/C(=C4\CCC(O)C(C)(CCC(O)C(C)(C)O)C4)CCC23)C(NC(C)=O)C(O)C1O` (stereo not given), the “cell shape (Z-score)” value was -0.527. Next, `COc1cc([C@H]2Oc3cc([C@H]4Oc5cc(O)cc(O)c5C(=O)[C@@H]4O)ccc3O[C@@H]2CO)ccc1O`: 1.6. Next, `COc1cc(C2OCC3C(c4cc(OC)c(OC)c(OC)c4)OCC23)cc(OC)c1OC` (stereo not given): 0.312; `CCC1(c2ncc[nH]2)Cc2ccccc2O1` (stereo not given): 1.92; `CCC(NC(C)C)C(O)c1ccc(O)c2[nH]c(=O)ccc12` (stereo not given): 1.41. Next, `O=C(OC1C(OC(=O)c2cccnc2)C(OC(=O)c2cccnc2)C(OC(=O)c2cccnc2)C(OC(=O)c2cccnc2)C1OC(=O)c1cccnc1)c1cccnc1` (stereo not given): -1.67; `CC1(CO)C=Cc2c(cc(O)c3c(=O)c(-c4ccc(O)cc4)coc23)O1` (stereo not given): 0.41.

On to `CCOC(=O)c1cnc2oc3ccc(O)cc3c2c1-c1ccccc1`, for which the “cell shape (Z-score)” value was -0.437.

On to `CC1(CO)CC(O)CC2(C)C3=C(CCC12)C(=O)OC3` (stereo not given), for which the “cell shape (Z-score)” value is -1.57. For `COC(=O)C1[C@H]2C[C@H]3c4[nH]c5ccccc5c4CCN3C[C@@H]2CC[C@@H]1O` (stereo not given in full) the value was -1.35. For `Cn1c(Nc2ccc(C(F)(F)F)cc2)nc2cc(Oc3ccnc(-c4ncc(C(F)(F)F)[nH]4)c3)ccc21` the value was 9.98. For `CN(CC[C@@H](Oc1ccc(-c2ccccc2)cc1)c1ccc(F)cc1)CC(=O)O` the value was 1.21; for `COCCn1c2c([n+](Cc3cnccn3)c1C)C(=O)c1ccccc1C2=O`, 1.6; for `O=C(O)c1ccccc1S`, -0.83.

For `O=C(O)CC/C=C\CC[C@@H]1[C@@H](N2CCCCC2)[C@@H](O)C[C@@H]1OCc1ccc(-c2ccccc2)cc1`, the “cell shape (Z-score)” value came out at 2.7. Next, `Fc1ccc(C2CCNCC2COc2ccc3c(c2)OCO3)cc1` (stereo not given): -0.128. Regarding `COc1ccc(/C=C/C(=O)O[C@@H]2[C@@H](OC(=O)/C=C/c3ccc(OC)cc3)[C@H](C)O[C@@H](O[C@H]3[C@@H]4C=CO[C@@H](O[C@@H]5O[C@H](CO)[C@@H](O)[C@H](O)[C@H]5O)[C@@H]4[C@@]4(CO)O[C@@H]34)[C@@H]2OC(C)=O)cc1`, the “cell shape (Z-score)” value came out at 1.82.

For `c1coc(CNc2ncnc3[nH]cnc23)c1`, the “cell shape (Z-score)” value was -0.974. Next, `CC(C)(C)c1ccc(C(O)CCCN2CCC(C(O)(c3ccccc3)c3ccccc3)CC2)cc1` (stereo not given): -0.389; `CCC(C)C(O)C(C)(O)/C=C/C1=CC2=C(Cl)C(=O)C(C)(O)C(OC(C)=O)C2CO1` (stereo not given): 2.13; `CC1(C)C[C@H](O)C[C@@]2(C)[C@H]1[C@H](O)C=C1COC(=O)[C@@]12O`: -2.46. Regarding `CCN(CC)CCOc1ccc(/C(=C(\Cl)c2ccccc2)c2ccccc2)cc1`, the “cell shape (Z-score)” value was -3.67. Turning to `CC(=O)O[C@]1(C(C)=O)CCC2C3C=C(C)C4=CC(=O)CCC4(C)C3CCC21C` (stereo not given in full), the “cell shape (Z-score)” value stood at 2.1.

With `COC(=O)c1cccc2nc3c(C(C)O)cccc3nc12` (stereo not given), the “cell shape (Z-score)” value was -4.26. On to `CSc1nc2cc(Cl)c(Oc3cccc(Cl)c3Cl)cc2[nH]1`, for which the “cell shape (Z-score)” value was -0.744.

For the molecule `O=C(CCNNC(=O)c1ccncc1)NCc1ccccc1`, the “cell shape (Z-score)” value is 0.908. Next, `C=C1C(=O)O[C@@H]2C[C@@]3(C)[C@@H](O)C[C@@H](O)C(=C)[C@@H]3C[C@H]12`: -1.62; `Nc1ccc(S(=O)(=O)Nc2ccccn2)cc1`: 1.68; `CC1=C[C@H](O)[C@H]2C(C)(C)CCC[C@]2(C)[C@@]1(O)CO`: 0.301.

With `CCCn1c(=O)c(C)cn2nc(N)nc12`, the “cell shape (Z-score)” value turned out to be 3.53. For the molecule `NS(=O)(=O)c1cc2c(cc1Cl)NCNS2(=O)=O`, the “cell shape (Z-score)” value was found to be 3.53. For the molecule `O=C1c2cccc(O)c2C(=O)c2c(O)cccc21`, the “cell shape (Z-score)” value was 3.05.
